The text below walks through data of publication PMC6460792.

Sequences of proteins named here, by UniProt entry; tags and fusion partners are left off. A change or cut given only in a name is not applied to a line headed by its entry. Residues count along the entry.
UniProt P63159: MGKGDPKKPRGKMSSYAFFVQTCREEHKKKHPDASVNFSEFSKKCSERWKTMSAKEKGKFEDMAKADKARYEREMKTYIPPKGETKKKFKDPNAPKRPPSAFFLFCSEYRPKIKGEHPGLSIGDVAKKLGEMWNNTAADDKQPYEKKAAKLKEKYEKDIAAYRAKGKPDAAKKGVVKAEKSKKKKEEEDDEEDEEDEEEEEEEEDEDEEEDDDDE
UniProt Q15109, residues 23-342: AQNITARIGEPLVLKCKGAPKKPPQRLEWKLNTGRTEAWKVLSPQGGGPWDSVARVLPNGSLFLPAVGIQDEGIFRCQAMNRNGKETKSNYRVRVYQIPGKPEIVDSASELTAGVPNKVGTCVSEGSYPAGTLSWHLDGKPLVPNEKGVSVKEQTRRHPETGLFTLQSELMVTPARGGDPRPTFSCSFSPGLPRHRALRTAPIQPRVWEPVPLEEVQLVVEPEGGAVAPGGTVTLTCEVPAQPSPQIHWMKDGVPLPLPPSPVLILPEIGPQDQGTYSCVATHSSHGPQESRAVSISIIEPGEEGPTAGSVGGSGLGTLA

The test deals with Recombinant HMGB1 (disulfide isoform), full length high mobility group box 1 protein (UniProt P63159). In words: ELISA; HMGB1 coated on Maxisorp plate (60 nM solution); human RAGE-Fc (0.25 nM) incubated with or without box A (10 uM) in PBS with 0.05% Tween 20 at room temperature for 30 min, then added to the plate for 100 min; detected with anti-human HRP antibody, OD 450 nm; both purified. (In general: An ELISA detects its analyte on a solid surface through an enzyme-linked reagent.)

Results are given in words; binding and its absence hold for the method and conditions named. Some binding calls cover weakened binding; strength is not graded here.

“Recombinant human RAGE-Fc chimera protein (from UniProt Q15109 23-342) (Fc fusion)”: the binding result is listed as “binds”.
